Data as given in PubChem BioAssay AID1259308 (NCATS, 2017)

Screen: 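Genes whose loss raises luciferase production in HEK293 cells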 (primary screen)
Cells: human HEK293 embryonic kidney cells stably expressing firefly luciferase (HEK-CMV-Luc2-Hygro)
Reagent: single siRNA against human genes, 0.8 pmol siRNA per well
Duration: 72 h
Read-out: 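Reporter luminescence and viable-cell signal on separate replicate plates, given as percent of non-targeting control and median/MAD z-scores, plus per-cell luciferase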
Direction: total luciferase, z-score: higher = more reporter protein produced
Hit rule: 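An siRNA counts as active if its total luciferase robust z-score exceeds 3; genes with two or more such siRNAs out of three were retested with fresh siRNAs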
Meaning of the calls: active = raised luciferase; inactive = no rise
This is an unselected part of about 59,000 reagents tested. Of all reagents, about 1,510 (2.6%) got an active call. 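Calls use total luciferase alone and ignore viability, so some active siRNAs may act by altering cell number.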 The numbers tell different reagents against one gene apart. Not all columns of the deposit are shown.

no.	Gene	reagent no.	total luciferase, z-score	call
1	ENTHD1 (ENTH domain containing 1)	1	1.86	inactive
2	ENTHD1 (ENTH domain containing 1)	2	-0.473	inactive
3	ENTHD1 (ENTH domain containing 1)	3	0.264	inactive
4	ELOC (elongin C)	1	-1.07	inactive
5	ELOC (elongin C)	2	2.24	inactive
6	ELOC (elongin C)	3	-0.9	inactive
7	JOSD2 (Josephin domain containing 2)	1	0.396	inactive
8	JOSD2 (Josephin domain containing 2)	2	-0.0467	inactive
9	JOSD2 (Josephin domain containing 2)	3	-0.161	inactive
10	LATS1 (large tumor suppressor kinase 1)	1	-0.749	inactive
11	LATS1 (large tumor suppressor kinase 1)	2	0.162	inactive
12	LATS1 (large tumor suppressor kinase 1)	3	-0.526	inactive
13	ASB6 (ankyrin repeat and SOCS box containing 6)	1	1.28	inactive
14	ASB6 (ankyrin repeat and SOCS box containing 6)	2	0.317	inactive
15	ASB6 (ankyrin repeat and SOCS box containing 6)	3	1.22	inactive
16	MEIOB (meiosis specific with OB-fold)	1	-0.0497	inactive
17	MEIOB (meiosis specific with OB-fold)	2	-1.11	inactive
18	MEIOB (meiosis specific with OB-fold)	3	-0.462	inactive
19	PLIN5 (perilipin 5)	1	-0.376	inactive
20	PLIN5 (perilipin 5)	2	1.28	inactive
21	PLIN5 (perilipin 5)	3	0.0862	inactive
22	NAP1L4 (nucleosome assembly protein 1 like 4)	1	0.342	inactive
23	NAP1L4 (nucleosome assembly protein 1 like 4)	2	-0.158	inactive
24	NAP1L4 (nucleosome assembly protein 1 like 4)	3	-0.591	inactive
25	CLDN23 (claudin 23)	1	0.000572	inactive
26	CLDN23 (claudin 23)	2	1.93	inactive
27	CLDN23 (claudin 23)	3	-0.862	inactive
28	SMIM15 (small integral membrane protein 15)	1	0.762	inactive
29	SMIM15 (small integral membrane protein 15)	2	0.313	inactive
30	SMIM15 (small integral membrane protein 15)	3	0.451	inactive
31	NLGN2 (neuroligin 2)	1	0.521	inactive
32	NLGN2 (neuroligin 2)	2	-0.0558	inactive
33	NLGN2 (neuroligin 2)	3	0.273	inactive
34	ART3 (ADP-ribosyltransferase 3 (inactive))	1	-0.561	inactive
35	ART3 (ADP-ribosyltransferase 3 (inactive))	2	2.6	inactive
36	ART3 (ADP-ribosyltransferase 3 (inactive))	3	-0.366	inactive
37	KRT81 (keratin 81)	1	-0.739	inactive
38	KRT81 (keratin 81)	2	-1.19	inactive
39	KRT81 (keratin 81)	3	0.691	inactive
40	ATP4B (ATPase H+/K+ transporting subunit beta)	1	4.95	active
41	ATP4B (ATPase H+/K+ transporting subunit beta)	2	1.72	inactive
42	ATP4B (ATPase H+/K+ transporting subunit beta)	3	-1.46	inactive
43	SPDYE2 (speedy/RINGO cell cycle regulator family member E2)	1	-0.0397	inactive
44	SPDYE2 (speedy/RINGO cell cycle regulator family member E2)	2	1.43	inactive
45	SPDYE2 (speedy/RINGO cell cycle regulator family member E2)	3	-0.0767	inactive
46	SPDYE2 (speedy/RINGO cell cycle regulator family member E2)	4	0.36	inactive
47	SPDYE2 (speedy/RINGO cell cycle regulator family member E2)	5	0.298	inactive
48	SPDYE2 (speedy/RINGO cell cycle regulator family member E2)	6	-0.123	inactive
49	EGFL7 (EGF like domain multiple 7)	1	0.124	inactive
50	EGFL7 (EGF like domain multiple 7)	2	-0.128	inactive
51	EGFL7 (EGF like domain multiple 7)	3	3.21	active
52	AFM (afamin)	1	-2.09	inactive
53	AFM (afamin)	2	-0.57	inactive
54	AFM (afamin)	3	0.116	inactive
55	ZRSR2	1	0.204	inactive
56	ZRSR2	2	0.651	inactive
57	ZRSR2	3	1.21	inactive
58	MORN1 (MORN repeat containing 1)	1	-0.451	inactive
59	MORN1 (MORN repeat containing 1)	2	0.607	inactive
60	MORN1 (MORN repeat containing 1)	3	-2.01	inactive
61	CSPG5 (chondroitin sulfate proteoglycan 5)	1	0.156	inactive
62	CSPG5 (chondroitin sulfate proteoglycan 5)	2	3.22	active
63	CSPG5 (chondroitin sulfate proteoglycan 5)	3	2.87	inactive
64	AKAP19 (A-kinase anchoring protein 19)	1	-0.886	inactive
65	AKAP19 (A-kinase anchoring protein 19)	2	-1.77	inactive
66	AKAP19 (A-kinase anchoring protein 19)	3	-2.02	inactive
67	SIN3A (SIN3 transcription regulator family member A)	1	-1.02	inactive
68	SIN3A (SIN3 transcription regulator family member A)	2	-0.492	inactive
69	SIN3A (SIN3 transcription regulator family member A)	3	-1.6	inactive
70	AP3M2 (adaptor related protein complex 3 subunit mu 2)	1	-0.321	inactive
71	AP3M2 (adaptor related protein complex 3 subunit mu 2)	2	-0.555	inactive
72	AP3M2 (adaptor related protein complex 3 subunit mu 2)	3	6.11	active
73	PHLDA1 (pleckstrin homology like domain family A member 1)	1	-0.209	inactive
74	PHLDA1 (pleckstrin homology like domain family A member 1)	2	-1.27	inactive
75	PHLDA1 (pleckstrin homology like domain family A member 1)	3	-0.756	inactive

In a second layout: 12 of the entries above.
Gene	reagent no.	total luciferase, z-score	call
JOSD2 (Josephin domain containing 2)	2	-0.0467	inactive
JOSD2 (Josephin domain containing 2)	3	-0.161	inactive
LATS1 (large tumor suppressor kinase 1)	1	-0.749	inactive
LATS1 (large tumor suppressor kinase 1)	2	0.162	inactive
LATS1 (large tumor suppressor kinase 1)	3	-0.526	inactive
ASB6 (ankyrin repeat and SOCS box containing 6)	1	1.28	inactive
ASB6 (ankyrin repeat and SOCS box containing 6)	2	0.317	inactive
ASB6 (ankyrin repeat and SOCS box containing 6)	3	1.22	inactive
MEIOB (meiosis specific with OB-fold)	1	-0.0497	inactive
MEIOB (meiosis specific with OB-fold)	2	-1.11	inactive
MEIOB (meiosis specific with OB-fold)	3	-0.462	inactive
PLIN5 (perilipin 5)	1	-0.376	inactive
